From PMC10077752, “Insights on the in-vitro binding interaction between donepezil and bovine serum albumin” (BMC Chemistry, 2023) come the findings set out here.

Sequences of proteins named here, by UniProt entry; tags and fusion partners are left off. Residues count along the entry.
UniProt P02769, 25-607: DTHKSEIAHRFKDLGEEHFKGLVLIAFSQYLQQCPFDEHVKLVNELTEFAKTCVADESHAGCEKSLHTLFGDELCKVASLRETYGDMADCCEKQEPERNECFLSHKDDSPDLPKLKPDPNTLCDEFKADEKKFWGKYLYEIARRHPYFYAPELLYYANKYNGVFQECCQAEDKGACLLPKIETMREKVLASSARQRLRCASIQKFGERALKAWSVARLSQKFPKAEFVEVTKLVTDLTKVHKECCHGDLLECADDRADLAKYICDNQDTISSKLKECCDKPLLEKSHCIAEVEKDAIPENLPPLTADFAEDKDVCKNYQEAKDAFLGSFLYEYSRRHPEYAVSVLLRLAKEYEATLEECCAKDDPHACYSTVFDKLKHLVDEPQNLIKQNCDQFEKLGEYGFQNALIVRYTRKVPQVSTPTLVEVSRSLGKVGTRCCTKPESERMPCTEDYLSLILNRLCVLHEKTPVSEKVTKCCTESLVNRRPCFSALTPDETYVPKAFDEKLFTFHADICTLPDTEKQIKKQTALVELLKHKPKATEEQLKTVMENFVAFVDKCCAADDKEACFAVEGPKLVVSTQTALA

This experiment concerns the target T1, bovine serum albumin (BSA) (Bos taurus, UniProt P02769).
T1 construct: gene ALB
The following applies: 298 K, 20 mM Tris pH 7.4, BSA 4 × 10^–8 M, excitation 285 nm; site I (subdomain IIA) by site-marker competition.

With `COc1cc2c(cc1OC)C(=O)C(CC1CCN(Cc3ccccc3)CC1)C2` (stereo not shown) [donepezil], the “kb × 10^4 (Lmol^-1)” value is given as 1.472 × 10^4 Lmol^−1.
